Measurements: patent US20160046678A1 (ZYNGENIA, published 2016)
These are yes or no findings as the source states them, for the method shown. Some entries that bind do so weakly or less than the wild type.

Protein sequences, listed by entry. Tags and fused reporters are not part of them. Residues count along the entry.
UniProt P21860, residues 20-643: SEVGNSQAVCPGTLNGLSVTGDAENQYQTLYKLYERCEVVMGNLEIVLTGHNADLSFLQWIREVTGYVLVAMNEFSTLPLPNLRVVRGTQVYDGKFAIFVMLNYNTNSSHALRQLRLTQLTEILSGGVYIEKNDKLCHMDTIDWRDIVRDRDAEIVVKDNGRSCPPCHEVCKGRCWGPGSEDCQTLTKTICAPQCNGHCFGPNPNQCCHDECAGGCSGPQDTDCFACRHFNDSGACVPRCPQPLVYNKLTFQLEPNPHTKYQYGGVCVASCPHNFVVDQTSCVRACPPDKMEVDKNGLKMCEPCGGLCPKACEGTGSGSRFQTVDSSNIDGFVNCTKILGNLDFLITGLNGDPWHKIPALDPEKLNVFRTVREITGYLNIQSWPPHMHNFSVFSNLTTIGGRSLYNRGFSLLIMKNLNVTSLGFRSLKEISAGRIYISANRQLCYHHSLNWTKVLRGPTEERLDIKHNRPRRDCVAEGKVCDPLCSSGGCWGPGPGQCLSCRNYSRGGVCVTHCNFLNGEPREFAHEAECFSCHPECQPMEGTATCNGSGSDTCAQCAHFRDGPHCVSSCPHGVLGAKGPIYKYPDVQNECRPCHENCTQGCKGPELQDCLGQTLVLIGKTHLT

molecular target: ErbB3 (UniProt P21860); assay: MRD screen, Example 48

binding, binds:
SSQPYCPFLNPTWKDACLART [EGC986]
ATEPYCPFLNPIWKAQCIERM [EGC1015]
AGKPYCPFLNPSWYDECIRRL [EGC997]
YREPYCPFLNPYWKDQCMART [EGC970]
VDEPYCPFLNPNWKEACIARS [EGC994]
YSDPYCPFLNPSWYDECVSRM [EGC1007]
YREPYCPFLNPLWKDECIART [EGC1005]
PREPYCPFLNPVWKAQCIARW [EGC1000]
SHEPYCPFLNPEWKAECIARN [EGC988]
FREPYCPFKNPTWLAQCIARS [EGC982]
YREPYCPFLNPTWYVECIARS [EGC1008]
LIEPYCPFLNPTWKEQCFVRS [EGC995]
MHEPYCPFINPTWYEQCLARS [EGC972]
ATEPYCPFLNPVWKDQCILRT [EGC1017]
NDEPYCPFLNPIWKAQCLARN [EGC996]
SSEPYCPFLNPSWKDQCIARL [EGC974]
LSDPYCPFLNPIWKDQCIART [EGC978]
SSVPYCPFKNPTWKAECIART [EGC1004]
LTEPYCPFLNPTWKDECLART [EGC981]
ISAPYCPFKNPIWKAECIARS [EGC1001]
YIDPYCPFLNPTWKDACLARS [EGC975]
SSEPYCPFLNPIWKQACYDRT [EGC993]
SSEPYCPFLNPTWYNECIYRI [EGC1012]
LSAPYCPFLNPTWKDQCLART [EGC992]
QLKPYCPFLNPIWYDQCVSRT [EGC973]
YGDPYCPFLNPTWKENCIART [EGC980]
QSEPYCPFVNPTWKNECIARY [EGC977]
LSEPYCPFLNPIWKDQCMIRS [EGC998]
ANEPYCPFLNPHWKGQCVLRS [EGC983]
ESEPYCPFVNPIWKDQCMARY [EGC991]
ASEPYCPFLNPTWRDACLART [EGC1010]
SSEHYCPFVNPAWKEACIARY [EGC976]
LREPYCPFLNPTWKEQCIARS [EGC1011]
LREPYCPFENPIWKEKCIAIT [EGC1013]
LGEPYCPFLNPTWKLQCLART [EGC1016]
DNDPYCPFLNPTWKEECVARS [EGC990]
LGEPYCPFINPTWKAECLART [EGC979]
IGEPYCPFLNPTWKDQCLVRS [EGC1003]
ASDPYCPFLNPIWKDQCILRS [EGC989]
HREPYCPFLNPAWKEQCLVRS [EGC1009]
LNEPYCPFNNPTWKEECIKRS [EGC984]
HSEPYCPFLNPTWKDECITRT [EGC1006]
QSEPYCPFLNPTWYTECVART [EGC985]
PSEPYCPFLNPTWKAECIART [EGC1014]
STEPYCPFLNPTWKDQCIARI [EGC999]
